Among the data in US20100233802A1 are binding values, retold here.

Results are given in words; binding and its absence hold for the method and conditions named. Some results given as binding are weak or reduced against the parent protein; the word gives no strength.

The test deals with SNAP-25 peptide comprising amino acids 134-197 of SEQ ID NO: 5 (human). Nature of the test: SPR, normalized curves.

B1: α-SNAP-25 monoclonal antibody 2C9B10 (antibody, V domains shown)
VH: QVKLQESGAELVKPGASVKISCKASGYTFTDHSIHWVKQKPGQGLEWIGYLFPGNGNFEYNEKFKGKATLTADKSSSTAYMHLNSLTSEDSAVYFCKKMDYWGQGTTVTVSS
VL: DIQMTQSPASLSASVGETVTITCRTTENIYSYFVWSQQRQGKSPQLRVYNAKSLAEGVPSSFNVSVSGTQFSLKINSLQPEDFGTYHCQHHYGTPYTFGGGTRLEIRR
With B1, the binding entry is “binds”.
